This assay can be described thus: qHTS Assay for Lipid Storage Modulators in Drosophila S3 Cells.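 As to cell number change: cells counted by Cell Tracker Red CMTPX staining in the red channel.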 The following applies: BODIPY lipid droplet fluorescence, 18-24 h; for cell number change: measured here: cell count max response, cells fed with added oleic acid. The procedure, abridged:
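Drosophila S3 cells got compounds at several concentrations plus oleic acid (400 uM solution). Laser-scanning cytometry with 488 nm excitation read lipid droplets at 500-530 nm and cells at 575-640 nm. Percent activity was relative to 20 uM Triacsin C.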

Where [1] appears, read: measured here: lipid fluorescence (Fed channel) AC50, cells fed with added oleic acid.
[2] abbreviates: measured here: cell number channel AC50, cells fed with added oleic acid.

Here are results for 57 compounds from PubChem BioAssay AID2685 (National Center for Advancing Translational Sciences (NCATS), 2010).

This is one part of the list. The main result of the screen is listed elsewhere. These columns were measured beside it and carry no call. The list favours compounds with an active or inconclusive main result. Words in brackets tell the shape of the fitted curve; partial curves, single points and poor fits give uncertain potencies.

As a reminder, the AC50 is the midpoint of the concentration-response curve, whichever way the signal moves. Low readings indicate activity at low concentration, high ones activity only at high concentration.

In the case of `c1ccc(Cn2nnc3c(NCc4ccc5c(c4)OCO5)nc(C4CC4)nc32)cc1`, the cell number change is -14.5%. Moreover, the AC50 under setting [1] is 1.3 µM [rising, full curve].
As for `Cc1ccc(C(=O)N2CCN(c3ncccn3)CC2)c(C)c1`, the cell number change was 27.8%. Further, under setting [1], the AC50 was 16.4 µM [rising, single point].
With `O=C(COC(=O)CNC(=O)c1sc2ccccc2c1Cl)Nc1cc(Cl)cc(Cl)c1`, the cell number change was found to be 4.41%.
Turning to `O=C(CSc1oc(-c2cccs2)nc1S(=O)(=O)c1ccc(F)cc1)NCC1CCCO1` (stereo not given), the cell number change was determined as 2.11%.
For `CCOc1ccccc1N=Cc1c(O)c2ccccc2oc1=O`, the cell number change came out at 6.93%. Further, the AC50 under setting [1] was 5.8 µM [rising, single point].
On to `CC(Sc1nnc(-c2cccnc2)o1)C(=O)NC1CCCCC1` (stereo not given), for which the cell number change is -8.94%. Also, under setting [1], the AC50 is 3.26 µM [rising, full curve, poor fit].
On to `Cn1c(=O)c(C(=O)COc2ccc(F)cc2Cl)c(N)n(Cc2ccccc2)c1=O`, for which the cell number change is -136%. Also, the AC50 under setting [2] was 32.6 µM [falling, partial curve, poor fit]. The AC50 under setting [1] is 29.1 µM [falling, partial curve].
`Cc1cccc(C)c1NC(=O)CNC(=O)CN1C(=O)NC2(CCc3ccccc32)C1=O` (stereo not given): the cell number change is 3.21%. Further, the AC50 under setting [2] was 6.51 µM [falling, single point]. Besides, the AC50 under setting [1] is 2.31 µM [rising, partial curve].
With `Cc1cc(SCC(=O)N2CCCC2)nc2ccccc12`, the cell number change is -12.4%. Also, the AC50 under setting [1] is 0.259 µM [rising, full curve, poor fit].
In the case of `O=C(/C=C/c1ccccc1Cl)N(Cc1ccc(Cl)cc1)C1CCS(=O)(=O)C1` (stereo not given), the cell number change was -0.25%.
Same read-out and setting: for `Cc1nnc(-c2cccc(Br)c2)c2cn(-c3ccc(Br)cc3)nc12` the value was 17.8%; for `CC(=O)Nc1nnc(SCC(=O)Nc2ccc3c(c2)OCCO3)s1`, 19.5%.
`Cc1cc(C)cc(Nc2nc3ccc(C)cc3n3cnnc23)c1`: the cell number change was -24.6%. In addition, under setting [1], the AC50 is 32.6 µM [falling, single point].
As to `Cc1ccc(NC(=O)c2ccccc2OCC(=O)Nc2ccccc2F)cc1S(=O)(=O)N(C)C`, the cell number change was 9.55%. Besides, the AC50 under setting [1] was 0.731 µM [rising, single point].
For `COC(=O)c1c(NC(=O)COC(=O)c2ccccc2O)sc2c1CCCCC2`, the cell number change amounted to 175%. The AC50 under setting [2] is 5.8 µM [rising, full curve]. Under setting [1], the AC50 was 5.8 µM [rising, full curve].
Take `C#CCOCCOCCOCCNc1nc(N2CCN(C(=O)CCCCCCCCCCNC(=O)Cn3cc(C[C@@H](C)O)nn3)CC2)nc(N2CCN(C(=O)CCCCCCCCCCNC(=O)[C@@H](CCC(=O)O)n3cc(CCCCCN)nn3)CC2)n1`: the cell number change is -14.9%. In addition, the AC50 under setting [1] is 6.51 µM [falling, single point].
Take `O=C(CSc1n[nH]c(-c2cccnc2)n1)Nc1cccc(Cl)c1`: the cell number change is -9.52%. Further, the AC50 under setting [1] was 6.51 µM [rising, single point].
Take `CCN(CC)CCNC(=O)c1ccc(NC(=O)C2CC(=O)N(c3ccc4c(c3)OCCO4)C2)cc1` (stereo not given): the cell number change is -18.9%.
Same read-out and setting: in the case of `COc1ccc(OC)c(NC(=O)C2CCCN2C(=O)NC2CCCCC2)c1` (stereo not given) it was 6.72%.
As for `Cc1ccccc1-c1nnc(SC(C)C(=O)NC2CCCC2)o1` (stereo not given), the cell number change came out at 12.8%. Moreover, the AC50 under setting [1] is 0.13 µM [falling, full curve, poor fit].
Take `O=S(=O)(c1ccccc1Cl)N1CCCC1c1nc(-c2cccc(Cl)c2)no1` (stereo not given): the AC50 under setting [2] was 6.51 µM [falling, single point].
On to `COc1ccc2ccccc2c1CN1CCN(C)CC1`, for which the cell number change amounted to 3.37%. Also, the AC50 under setting [1] is 6.51 µM [rising, single point].
For the compound `CCn1nc(C)cc1C(=O)N1CCCC(Nc2ccc(C(C)C)cc2)C1` (stereo not given), the AC50 under setting [1] was 0.651 µM [falling, full curve].
With `Nc1cc(S(=O)(=O)Nc2cc(Cl)ccc2Cl)ccc1N1CCCC1`, the cell number change came to 6.43%. Moreover, the AC50 under setting [1] was 18.4 µM [rising, single point].
Turning to `O=C(Cn1cncn1)c1ccc(F)cc1F`, the cell number change was determined as 28.7%. Also, under setting [1], the AC50 was 3.66 µM [falling, single point].
As for `O=C(Cn1c(=O)cnc2ccccc21)NNC(=O)c1ccccc1Cl`, the cell number change came out at 3.49%. Further, under setting [1], the concentration at half-maximal activity (AC50) was 23.1 µM [rising, single point].
`CC(=O)c1nn(-c2cccc(Br)c2)cc1C(=O)c1cccc2ccccc12`: the cell number change amounted to 22.7%. Moreover, the AC50 under setting [2] was 0.651 µM [rising, partial curve]. Further, the AC50 under setting [1] is 0.651 µM [rising, single point].
Regarding `Cc1nccc(-c2ccc(-n3cnc4ccccc43)cc2)n1`, the cell number change is 36.5%. Further, under setting [2], the AC50 is 0.58 µM [rising, full curve]. Moreover, the AC50 under setting [1] was 2.31 µM [rising, partial curve].
In the case of `CC(C)N(C)S(=O)(=O)c1ccc(Cl)c(C(=O)O)c1`, the cell number change was determined as 63.1%.
As for `COc1ccc(-c2c(-c3cc(OC)cc(OC)c3)n(C)c3ccc(Br)cc23)cc1`, the cell number change was 17.6%. Also, the AC50 under setting [1] is 0.164 µM [rising, full curve, poor fit].
On to `CC(=O)c1ccc(NC(=O)CN2CCN(S(=O)(=O)c3ccc4ccccc4c3)CC2)cc1`, for which the cell number change was found to be 8.77%. The AC50 under setting [1] is 0.00517 µM [rising, full curve, poor fit].
With `Cc1ccccc1OCC(=O)OCC(=O)Nc1cc(S(=O)(=O)N2CCCCC2)ccc1Cl`, the cell number change is 4.66%. Also, the AC50 under setting [2] was 6.51 µM [falling, single point].
Regarding `Cn1cccc1Cc1nnc(SCC(=O)NCc2ccccc2)n1-c1ccc(F)cc1`, the cell number change is -14.1%. For the same compound, under setting [1], the AC50 was 6.51 µM [rising, single point].
`CCOc1cc(C(=O)N2CCCN(C)CC2)cc(OCC)c1OCC`: the cell number change was determined as 1.35%. Also, under setting [2], the AC50 was 7.31 µM [falling, single point].
In the case of `CCOc1ccc(CCNC(=O)COC(=O)c2c(C)nn(-c3ccccc3)c2C)cc1OCC`, the cell number change was -33%. Moreover, the AC50 under setting [2] is 14.6 µM [falling, single point]. In addition, under setting [1], the AC50 is 7.31 µM [falling, partial curve].
For `O=C(Nc1cccc2cccnc12)c1cccnc1`, the cell number change is 0.219%. The AC50 under setting [1] was 14.6 µM [rising, partial curve, poor fit].
For the compound `Cc1c(C(=O)Nc2ccccc2)cn2c(nc3ccccc32)c1C#N`, the cell number change was 3.34%. Under setting [1], the AC50 was 29.1 µM [rising, single point].
As for `CC1CN(S(=O)(=O)c2ccc(C(=O)NN3CCN(C)CC3)cc2)CC(C)O1` (stereo not given), the AC50 was 6.51 µM [rising, single point] under setting [2] and 0.116 µM [falling, full curve, poor fit] under setting [1].
Turning to `CCN(CC)C(=O)Cn1cc(S(=O)(=O)CC(=O)Nc2ccc(C(N)=O)cc2)c2ccccc21`, the cell number change was determined as 22.8%. Further, the AC50 under setting [1] is 29.1 µM [rising, single point].
As for `COc1cc(/C=N/NC(=O)c2cc(C3CC3)[nH]n2)cc(OC)c1OC`, the cell number change is -6.42%. Also, the AC50 under setting [1] is 29.1 µM [falling, single point].
As for `CCC(C(=O)NC(C)(C)C)N(C(=O)Cn1nnc(-c2ccccc2F)n1)c1cccc2c1CCCC2` (stereo not given), the cell number change amounted to 137%. Moreover, under setting [1], the half-maximal activity concentration (AC50) was 25.9 µM [rising, partial curve].
`Cc1ccc(C(=O)NCN2CCN(c3ccc(F)cc3)CC2)cc1`: the cell number change is 22.7%. For the same compound, the AC50 under setting [1] is 0.00461 µM [falling, full curve, poor fit].
Regarding `CCOC(=O)C1CCCN(S(=O)(=O)c2ccc(S(=O)(=O)N(CC)CC)cc2)C1` (stereo not given), the cell number change is -60.5%. Moreover, under setting [2], the AC50 was 6.51 µM [falling, partial curve]. Moreover, the AC50 under setting [1] is 5.8 µM [falling, partial curve].
With `COc1ccc(NC(=S)N2CCCC2)cc1`, the cell number change was -57.1%. Also, the AC50 under setting [2] is 20.6 µM [falling, single point].
Regarding `O=C(O)c1ccccc1C(=O)Nc1nc(-c2ccccc2)cs1`, the cell number change was 15.2%. The AC50 under setting [1] is 23.1 µM [rising, single point].
Turning to `C#CCOCCOCCOCCNc1nc(N2CCN(C(=O)CCCCCCCCCCNC(=O)Cn3cc(CCCCCN)nn3)CC2)nc(N2CCN(C(=O)CCCCCCCCCCNC(=O)Cn3cc(CCCCCN)nn3)CC2)n1`, under setting [1], the AC50 is 6.51 µM [rising, partial curve, poor fit].
`Cc1nnc(SCC(=O)N2CCN(S(=O)(=O)c3ccccc3)CC2)n1Cc1ccccc1`: the cell number change was -0.204%. Also, under setting [1], the AC50 is 0.116 µM [falling, single point].
With `NC(=O)c1c(NC(=O)c2ccccc2)sc2c1CCN(Cc1ccccc1)C2`, the cell number change is 136%. Further, the AC50 under setting [2] was 29.1 µM [rising, single point]. Moreover, under setting [1], the AC50 was 29.1 µM [rising, single point].
In the case of `CC(O)[C@@]1(O)CC[C@H]2[C@@H]3CC[C@H]4C[C@@H](O)CC[C@]4(C)C3=CC[C@@]21C` (stereo not given in full), the cell number change is -18.7%. Further, the AC50 under setting [1] was 14.6 µM [rising, partial curve, poor fit].
In the case of `COc1cccc(CC(NC(C)=O)C(=O)NC2CCN(c3nc(C)cc(C)c3C#N)CC2)c1OC` (stereo not given), the AC50 under setting [1] was 0.58 µM [rising, single point].
In the case of `Cc1cc(C)cc(Oc2ccccc2/C=N\O)c1`, the cell number change is -46.1%. The AC50 under setting [2] is 29.1 µM [falling, single point]. Moreover, the AC50 under setting [1] is 29.1 µM [falling, single point].
`COc1cc(-c2csc(C)n2)ccc1O`: the cell number change amounted to 14.3%. Further, the AC50 under setting [1] was 3.26 µM [rising, partial curve].
In the case of `Cc1cc(C)c(NC(=O)C2CCCN2CCOC(=O)c2cccc([N+](=O)[O-])c2)c(C)c1` (stereo not given), under setting [1], the AC50 was 2.91 µM [rising, single point].
Regarding `Oc1ccc(C[C@@H]2CNCCN2CC2(c3ccccc3)CC2)cc1`, the cell number change turned out to be 22.8%. Moreover, under setting [1], the AC50 was 0.0058 µM [rising, full curve, poor fit].
`Cc1ccc2[nH]cc(S(=O)(=O)c3ccc(C(C)C)cc3)c(=O)c2c1`: the AC50 under setting [1] is 6.51 µM [rising, single point].
Regarding `COC(=O)N/N=C\c1ccc(OC/C=C/c2ccccc2)c(OC)c1`, the cell number change was 15.1%. Also, the AC50 under setting [1] is 29.1 µM [rising, single point].
As for `CC[n+]1c(/C=C2/C=C(C)CC(C)(C)C2)sc2ccc(OC)cc21`, the cell number change was -34.2%. The AC50 under setting [2] is 29.1 µM [falling, single point]. In addition, the AC50 under setting [1] is 18.4 µM [falling, single point].
